The assay has as its target T1, FLAG-tagged Tspan7 (Tetraspanin-7) (human) (UniProt P41732).
T1 sequence: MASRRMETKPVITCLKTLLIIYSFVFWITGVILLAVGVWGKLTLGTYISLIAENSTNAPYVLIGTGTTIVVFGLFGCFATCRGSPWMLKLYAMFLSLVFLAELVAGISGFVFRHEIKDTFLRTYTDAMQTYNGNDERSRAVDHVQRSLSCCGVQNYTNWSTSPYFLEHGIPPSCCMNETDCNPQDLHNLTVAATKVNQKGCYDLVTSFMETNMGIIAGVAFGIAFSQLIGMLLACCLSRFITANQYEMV
As to the kind of experiment: affinity purification with mass spectrometry; Anti-Flag M2 agarose beads on lysates of U2OS cells expressing FLAG-tagged Tspan7 or control constructs; proteins interacting with Tspan7 identified by mass spectrometry.

Protein sequences, listed by entry. Tags and fused reporters are not part of them. Lines headed by an entry give the natural chain unless they say otherwise; changes in a name come on top.
UniProt P05556: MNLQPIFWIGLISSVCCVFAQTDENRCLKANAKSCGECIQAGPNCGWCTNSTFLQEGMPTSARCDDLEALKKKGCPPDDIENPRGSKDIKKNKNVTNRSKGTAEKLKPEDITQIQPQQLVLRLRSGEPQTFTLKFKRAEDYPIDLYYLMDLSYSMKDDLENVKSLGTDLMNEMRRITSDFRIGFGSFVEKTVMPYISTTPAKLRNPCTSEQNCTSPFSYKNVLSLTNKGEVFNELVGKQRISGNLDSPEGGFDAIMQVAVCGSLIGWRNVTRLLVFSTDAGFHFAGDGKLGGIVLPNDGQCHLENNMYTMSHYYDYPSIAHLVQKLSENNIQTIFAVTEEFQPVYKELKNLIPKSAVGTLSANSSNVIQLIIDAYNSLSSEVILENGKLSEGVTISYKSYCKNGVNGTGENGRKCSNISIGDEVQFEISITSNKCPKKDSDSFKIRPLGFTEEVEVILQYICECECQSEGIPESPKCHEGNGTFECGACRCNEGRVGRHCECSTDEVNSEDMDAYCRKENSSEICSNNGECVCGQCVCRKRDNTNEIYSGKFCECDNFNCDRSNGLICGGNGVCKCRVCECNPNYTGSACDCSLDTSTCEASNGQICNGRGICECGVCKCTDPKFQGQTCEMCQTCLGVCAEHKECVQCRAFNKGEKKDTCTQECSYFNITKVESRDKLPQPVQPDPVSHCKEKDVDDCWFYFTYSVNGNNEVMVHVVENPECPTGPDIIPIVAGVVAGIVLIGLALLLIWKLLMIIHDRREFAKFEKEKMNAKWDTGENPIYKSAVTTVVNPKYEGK

Results are given in words; binding and its absence hold for the method and conditions named. In cells and extracts the contact can be indirect. Here binding means that the protein was enriched with, or labelled near, the bait; the list need not be complete. Tags and fused reporters may be left off the sequences shown.

Regarding “integrin β1 (from UniProt P05556 21-798) (receptor)”, the binding result is reported as “binds”.

These data come from paper PMC9074275.
